Results on four substances are retold here after PMC9243104.

Chains of the proteins cited; added tags and fusions are not shown. Residues count along the entry.
UniProt Q92547: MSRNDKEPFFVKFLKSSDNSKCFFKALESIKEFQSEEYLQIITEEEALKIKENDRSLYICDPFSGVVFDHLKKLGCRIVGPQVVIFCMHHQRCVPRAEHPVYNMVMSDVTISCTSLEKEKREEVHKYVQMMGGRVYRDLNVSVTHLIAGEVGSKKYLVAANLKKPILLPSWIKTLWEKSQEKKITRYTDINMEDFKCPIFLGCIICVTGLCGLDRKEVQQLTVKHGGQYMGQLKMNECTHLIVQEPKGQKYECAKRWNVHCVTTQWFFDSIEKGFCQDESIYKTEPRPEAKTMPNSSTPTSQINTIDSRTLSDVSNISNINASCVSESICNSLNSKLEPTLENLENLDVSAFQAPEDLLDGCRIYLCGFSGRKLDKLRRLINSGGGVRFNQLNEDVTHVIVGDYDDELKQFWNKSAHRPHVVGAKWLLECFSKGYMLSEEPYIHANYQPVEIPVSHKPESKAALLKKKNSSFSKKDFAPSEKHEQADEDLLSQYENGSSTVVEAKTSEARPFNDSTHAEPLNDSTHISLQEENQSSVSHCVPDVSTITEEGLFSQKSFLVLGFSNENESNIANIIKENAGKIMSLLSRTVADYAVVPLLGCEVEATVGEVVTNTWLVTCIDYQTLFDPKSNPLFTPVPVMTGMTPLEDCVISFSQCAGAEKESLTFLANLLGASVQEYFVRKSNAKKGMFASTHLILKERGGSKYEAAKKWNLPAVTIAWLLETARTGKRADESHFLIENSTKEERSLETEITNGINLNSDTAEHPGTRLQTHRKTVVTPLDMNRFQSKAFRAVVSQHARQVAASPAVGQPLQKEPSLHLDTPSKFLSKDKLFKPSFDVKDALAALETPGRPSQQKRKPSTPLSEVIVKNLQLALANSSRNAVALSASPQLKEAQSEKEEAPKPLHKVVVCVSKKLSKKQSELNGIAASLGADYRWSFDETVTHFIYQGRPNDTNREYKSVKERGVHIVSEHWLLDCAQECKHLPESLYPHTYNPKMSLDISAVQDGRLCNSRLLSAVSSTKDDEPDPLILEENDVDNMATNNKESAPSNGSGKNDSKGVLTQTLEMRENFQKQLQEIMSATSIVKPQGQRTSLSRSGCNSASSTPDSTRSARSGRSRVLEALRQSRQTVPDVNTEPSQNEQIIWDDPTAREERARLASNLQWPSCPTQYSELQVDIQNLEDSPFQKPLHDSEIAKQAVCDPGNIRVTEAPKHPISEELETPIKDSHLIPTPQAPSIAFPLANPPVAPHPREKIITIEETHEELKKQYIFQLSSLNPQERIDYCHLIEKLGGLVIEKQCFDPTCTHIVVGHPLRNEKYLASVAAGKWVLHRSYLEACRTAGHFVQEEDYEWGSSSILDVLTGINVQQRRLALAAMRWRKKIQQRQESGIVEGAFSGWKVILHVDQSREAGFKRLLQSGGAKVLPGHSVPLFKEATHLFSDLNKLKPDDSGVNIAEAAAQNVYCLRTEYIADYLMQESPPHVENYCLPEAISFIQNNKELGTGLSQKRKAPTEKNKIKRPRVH
UniProt P61244: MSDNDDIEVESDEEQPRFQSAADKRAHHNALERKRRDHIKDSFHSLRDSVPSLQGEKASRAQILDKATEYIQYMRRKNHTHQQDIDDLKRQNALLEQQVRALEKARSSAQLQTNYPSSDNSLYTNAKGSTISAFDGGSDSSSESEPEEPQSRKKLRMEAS
UniProt P02769, residues 25-607: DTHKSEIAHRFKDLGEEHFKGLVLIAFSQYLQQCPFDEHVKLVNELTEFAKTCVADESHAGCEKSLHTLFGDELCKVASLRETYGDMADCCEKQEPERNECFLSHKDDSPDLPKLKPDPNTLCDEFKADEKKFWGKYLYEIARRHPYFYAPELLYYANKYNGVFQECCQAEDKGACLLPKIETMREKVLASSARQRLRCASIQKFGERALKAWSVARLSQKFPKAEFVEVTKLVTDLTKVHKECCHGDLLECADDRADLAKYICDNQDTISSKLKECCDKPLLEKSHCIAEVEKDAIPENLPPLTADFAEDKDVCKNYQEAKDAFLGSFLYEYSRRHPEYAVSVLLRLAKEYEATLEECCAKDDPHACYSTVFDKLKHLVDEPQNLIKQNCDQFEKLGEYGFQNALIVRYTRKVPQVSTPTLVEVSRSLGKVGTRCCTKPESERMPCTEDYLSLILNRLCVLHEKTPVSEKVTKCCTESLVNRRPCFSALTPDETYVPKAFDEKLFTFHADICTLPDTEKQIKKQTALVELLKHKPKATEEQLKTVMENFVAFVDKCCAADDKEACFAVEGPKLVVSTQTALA
UniProt Q13535: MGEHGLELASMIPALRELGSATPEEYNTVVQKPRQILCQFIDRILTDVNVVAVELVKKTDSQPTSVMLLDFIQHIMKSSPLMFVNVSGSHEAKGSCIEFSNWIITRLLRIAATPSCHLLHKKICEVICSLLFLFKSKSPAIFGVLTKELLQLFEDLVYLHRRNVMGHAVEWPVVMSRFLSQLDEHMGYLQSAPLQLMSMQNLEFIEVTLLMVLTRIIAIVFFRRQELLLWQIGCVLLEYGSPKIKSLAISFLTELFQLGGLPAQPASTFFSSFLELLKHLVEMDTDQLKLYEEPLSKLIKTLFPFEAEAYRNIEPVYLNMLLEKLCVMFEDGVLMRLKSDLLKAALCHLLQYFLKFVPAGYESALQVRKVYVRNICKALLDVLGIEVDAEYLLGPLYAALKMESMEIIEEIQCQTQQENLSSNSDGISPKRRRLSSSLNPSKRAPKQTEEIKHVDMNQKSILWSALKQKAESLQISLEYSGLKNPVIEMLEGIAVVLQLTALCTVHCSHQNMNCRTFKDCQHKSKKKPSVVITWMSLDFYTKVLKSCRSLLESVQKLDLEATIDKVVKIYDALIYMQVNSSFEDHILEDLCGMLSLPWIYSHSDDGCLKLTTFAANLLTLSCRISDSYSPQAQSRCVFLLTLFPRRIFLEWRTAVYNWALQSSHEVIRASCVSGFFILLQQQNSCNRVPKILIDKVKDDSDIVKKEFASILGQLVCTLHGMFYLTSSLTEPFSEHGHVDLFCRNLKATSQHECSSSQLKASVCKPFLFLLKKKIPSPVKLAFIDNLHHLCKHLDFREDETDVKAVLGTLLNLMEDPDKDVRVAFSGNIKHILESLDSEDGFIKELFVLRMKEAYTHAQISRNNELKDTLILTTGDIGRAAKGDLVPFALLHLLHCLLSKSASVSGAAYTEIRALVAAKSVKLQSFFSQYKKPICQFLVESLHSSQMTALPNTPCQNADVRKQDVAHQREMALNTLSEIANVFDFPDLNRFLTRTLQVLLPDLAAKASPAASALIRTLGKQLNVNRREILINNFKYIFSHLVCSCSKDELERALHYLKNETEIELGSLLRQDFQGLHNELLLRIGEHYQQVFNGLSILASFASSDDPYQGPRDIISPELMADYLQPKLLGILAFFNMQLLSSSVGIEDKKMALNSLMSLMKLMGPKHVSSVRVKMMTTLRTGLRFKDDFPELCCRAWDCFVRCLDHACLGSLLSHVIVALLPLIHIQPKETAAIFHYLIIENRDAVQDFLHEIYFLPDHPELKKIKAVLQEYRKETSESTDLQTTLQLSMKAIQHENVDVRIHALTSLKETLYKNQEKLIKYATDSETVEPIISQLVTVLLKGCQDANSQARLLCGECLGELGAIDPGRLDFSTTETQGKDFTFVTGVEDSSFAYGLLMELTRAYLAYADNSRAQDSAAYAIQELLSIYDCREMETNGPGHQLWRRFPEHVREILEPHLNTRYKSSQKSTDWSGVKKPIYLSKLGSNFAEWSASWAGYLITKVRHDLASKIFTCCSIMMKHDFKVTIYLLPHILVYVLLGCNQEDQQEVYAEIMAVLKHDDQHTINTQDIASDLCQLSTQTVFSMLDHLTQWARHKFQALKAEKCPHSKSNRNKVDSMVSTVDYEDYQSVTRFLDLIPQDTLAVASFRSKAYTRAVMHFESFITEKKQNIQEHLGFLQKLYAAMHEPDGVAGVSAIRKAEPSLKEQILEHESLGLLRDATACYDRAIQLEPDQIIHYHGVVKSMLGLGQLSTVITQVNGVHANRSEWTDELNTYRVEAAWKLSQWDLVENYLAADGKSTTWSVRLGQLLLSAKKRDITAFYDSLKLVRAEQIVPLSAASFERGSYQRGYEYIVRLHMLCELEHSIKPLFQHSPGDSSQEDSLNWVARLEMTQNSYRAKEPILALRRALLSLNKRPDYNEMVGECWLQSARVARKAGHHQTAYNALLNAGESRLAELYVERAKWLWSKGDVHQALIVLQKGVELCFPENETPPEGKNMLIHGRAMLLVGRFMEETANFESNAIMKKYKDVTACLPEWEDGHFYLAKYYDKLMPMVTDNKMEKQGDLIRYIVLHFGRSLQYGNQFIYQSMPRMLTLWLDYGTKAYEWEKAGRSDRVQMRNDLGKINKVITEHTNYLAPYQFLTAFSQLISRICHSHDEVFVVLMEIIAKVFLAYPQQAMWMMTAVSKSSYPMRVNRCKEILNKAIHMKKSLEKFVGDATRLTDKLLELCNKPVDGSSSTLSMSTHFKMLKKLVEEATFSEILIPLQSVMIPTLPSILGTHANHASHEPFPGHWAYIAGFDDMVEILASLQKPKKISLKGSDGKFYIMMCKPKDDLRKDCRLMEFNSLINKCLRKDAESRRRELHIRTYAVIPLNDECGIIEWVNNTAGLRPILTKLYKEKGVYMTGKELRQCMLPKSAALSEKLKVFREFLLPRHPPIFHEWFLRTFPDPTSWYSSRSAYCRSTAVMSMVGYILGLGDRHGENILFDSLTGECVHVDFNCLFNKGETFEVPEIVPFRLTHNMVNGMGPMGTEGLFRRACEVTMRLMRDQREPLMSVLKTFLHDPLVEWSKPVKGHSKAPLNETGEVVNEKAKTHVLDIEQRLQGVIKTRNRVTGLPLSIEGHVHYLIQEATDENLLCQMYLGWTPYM
UniProt P42768: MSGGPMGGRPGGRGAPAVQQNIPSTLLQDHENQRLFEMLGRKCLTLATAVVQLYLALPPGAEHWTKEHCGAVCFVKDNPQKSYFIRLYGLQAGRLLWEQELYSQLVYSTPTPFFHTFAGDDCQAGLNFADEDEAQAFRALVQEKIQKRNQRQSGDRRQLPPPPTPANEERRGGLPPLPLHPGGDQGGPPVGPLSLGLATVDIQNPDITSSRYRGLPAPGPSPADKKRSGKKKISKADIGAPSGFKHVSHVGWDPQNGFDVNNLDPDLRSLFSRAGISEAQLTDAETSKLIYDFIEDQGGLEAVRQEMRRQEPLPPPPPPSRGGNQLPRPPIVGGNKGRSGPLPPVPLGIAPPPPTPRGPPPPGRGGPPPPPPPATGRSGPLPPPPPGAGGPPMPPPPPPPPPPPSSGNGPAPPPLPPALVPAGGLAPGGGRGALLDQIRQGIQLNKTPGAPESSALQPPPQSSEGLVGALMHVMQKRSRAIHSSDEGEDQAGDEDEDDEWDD
UniProt P15927: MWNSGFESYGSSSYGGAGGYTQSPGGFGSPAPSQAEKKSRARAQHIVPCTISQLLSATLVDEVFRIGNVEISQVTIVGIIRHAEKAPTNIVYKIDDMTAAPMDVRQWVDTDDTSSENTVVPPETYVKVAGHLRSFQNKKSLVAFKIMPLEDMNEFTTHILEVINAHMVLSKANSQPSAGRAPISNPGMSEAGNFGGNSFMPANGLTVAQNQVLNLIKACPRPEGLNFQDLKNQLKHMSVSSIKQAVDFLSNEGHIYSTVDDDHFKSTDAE

Results are given in words; binding and its absence hold for the method and conditions named. For part of these data: Binding seen in cells or lysates may run through a third protein. Some binding calls cover weakened binding; strength is not graded here.

Assay [1] has as its target TOPBP1 (endogenous, human T cells) (human (endogenous in T cells)) (UniProt Q92547). Kind of assay: proximity ligation; Duolink PLA on fixed, permeabilised human T cells and B cells, endogenous proteins; cells treated with HU or CPT (2 h or 4 h); WT and WASp-deficient cells compared in some panels.
Assay [2] has as its target γH2A.X (endogenous, human T and B cells) (human (endogenous in T and B cells)) (UniProt P16104). Briefly: proximity ligation; Duolink PLA on fixed, permeabilised human T cells and B cells, endogenous proteins; no damage control (no genotoxin).
The target is the same in assay [3]. Briefly: proximity ligation; Duolink PLA on fixed, permeabilised human T cells and B cells, endogenous proteins; cells treated with HU or CPT (2 h or 4 h); WT and WASp-deficient cells compared in some panels.
Assay [4] deals with Human MAX (Myc-associated factor X) (human) (UniProt P61244). Kind of assay: ELISA; 1 µg of 1st protein coated on a 96-well plate (1 h, 25 °C), blocked with 5% milk in PBS; 2nd protein added at increasing concentrations in blocking buffer (1 h, 25 °C); detected with anti-WASp antibody, OD450; RPA coated alone or after pre-incubation with 1 nM ssDNA; both purified.
In assay [5] the target is Bovine serum albumin (bovine) (UniProt P02769). Described as above.

In the case of “ATR (endogenous, human T cells) (from UniProt Q13535 1-2644) (enzyme)”, the binding entry in assay [1] is “binds”. On to “Endogenous WASp of human T cells and B cells (from UniProt P42768 1-502)”, for which the binding result in assay [2] is on record as “no binding (condition: without genotoxin (no damage))”; in assay [3] it was “binds”. As for “RPA2(pSer33) (endogenous, human T and B cells) (from UniProt P15927 1-270)”, the binding result in assay [3] is reported as “binds”. With “Recombinant human WT*WASp (Wiskott-Aldrich syndrome protein) (from UniProt P42768 1-502)”, the binding result in assay [4] and in assay [5] was “no binding (tested: highest amount of WT*WASp 1 μg)” each time.
